One substance from patent US9005575B2 (STC.UNM, priority 2009, dated 2015) can be followed below.

The nature of this series: general procedure: Fmoc solid-phase peptide synthesis; Sieber amide resin; PyBOP/DIEA (cyclization). The following applies: whole synthesis.

Regarding RGD-Arg-(Arg^11)CCMSH, the “final purity (method not given)” value is listed as “greater than 95%”. The isolated yield (overall) was determined as 30%.
